## Primary screen of a compound library

Sequences of proteins named here, by UniProt entry; tags and fusion partners are left off. Residues count along the entry.
UniProt P9WPC5, whole entry: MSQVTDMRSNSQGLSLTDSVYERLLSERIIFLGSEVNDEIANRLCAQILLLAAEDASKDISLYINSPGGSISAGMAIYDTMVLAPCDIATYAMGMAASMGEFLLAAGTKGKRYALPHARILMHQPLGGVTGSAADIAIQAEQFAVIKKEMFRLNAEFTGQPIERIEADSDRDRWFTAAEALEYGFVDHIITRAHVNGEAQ
UniProt P9WPC3, whole entry partner: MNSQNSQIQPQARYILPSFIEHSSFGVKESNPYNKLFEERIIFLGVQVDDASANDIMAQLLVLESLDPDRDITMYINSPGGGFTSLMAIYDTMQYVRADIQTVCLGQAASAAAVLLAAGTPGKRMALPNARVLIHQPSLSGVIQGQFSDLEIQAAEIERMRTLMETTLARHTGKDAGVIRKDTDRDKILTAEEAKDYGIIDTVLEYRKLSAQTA
UniProt I6X8D2, whole entry: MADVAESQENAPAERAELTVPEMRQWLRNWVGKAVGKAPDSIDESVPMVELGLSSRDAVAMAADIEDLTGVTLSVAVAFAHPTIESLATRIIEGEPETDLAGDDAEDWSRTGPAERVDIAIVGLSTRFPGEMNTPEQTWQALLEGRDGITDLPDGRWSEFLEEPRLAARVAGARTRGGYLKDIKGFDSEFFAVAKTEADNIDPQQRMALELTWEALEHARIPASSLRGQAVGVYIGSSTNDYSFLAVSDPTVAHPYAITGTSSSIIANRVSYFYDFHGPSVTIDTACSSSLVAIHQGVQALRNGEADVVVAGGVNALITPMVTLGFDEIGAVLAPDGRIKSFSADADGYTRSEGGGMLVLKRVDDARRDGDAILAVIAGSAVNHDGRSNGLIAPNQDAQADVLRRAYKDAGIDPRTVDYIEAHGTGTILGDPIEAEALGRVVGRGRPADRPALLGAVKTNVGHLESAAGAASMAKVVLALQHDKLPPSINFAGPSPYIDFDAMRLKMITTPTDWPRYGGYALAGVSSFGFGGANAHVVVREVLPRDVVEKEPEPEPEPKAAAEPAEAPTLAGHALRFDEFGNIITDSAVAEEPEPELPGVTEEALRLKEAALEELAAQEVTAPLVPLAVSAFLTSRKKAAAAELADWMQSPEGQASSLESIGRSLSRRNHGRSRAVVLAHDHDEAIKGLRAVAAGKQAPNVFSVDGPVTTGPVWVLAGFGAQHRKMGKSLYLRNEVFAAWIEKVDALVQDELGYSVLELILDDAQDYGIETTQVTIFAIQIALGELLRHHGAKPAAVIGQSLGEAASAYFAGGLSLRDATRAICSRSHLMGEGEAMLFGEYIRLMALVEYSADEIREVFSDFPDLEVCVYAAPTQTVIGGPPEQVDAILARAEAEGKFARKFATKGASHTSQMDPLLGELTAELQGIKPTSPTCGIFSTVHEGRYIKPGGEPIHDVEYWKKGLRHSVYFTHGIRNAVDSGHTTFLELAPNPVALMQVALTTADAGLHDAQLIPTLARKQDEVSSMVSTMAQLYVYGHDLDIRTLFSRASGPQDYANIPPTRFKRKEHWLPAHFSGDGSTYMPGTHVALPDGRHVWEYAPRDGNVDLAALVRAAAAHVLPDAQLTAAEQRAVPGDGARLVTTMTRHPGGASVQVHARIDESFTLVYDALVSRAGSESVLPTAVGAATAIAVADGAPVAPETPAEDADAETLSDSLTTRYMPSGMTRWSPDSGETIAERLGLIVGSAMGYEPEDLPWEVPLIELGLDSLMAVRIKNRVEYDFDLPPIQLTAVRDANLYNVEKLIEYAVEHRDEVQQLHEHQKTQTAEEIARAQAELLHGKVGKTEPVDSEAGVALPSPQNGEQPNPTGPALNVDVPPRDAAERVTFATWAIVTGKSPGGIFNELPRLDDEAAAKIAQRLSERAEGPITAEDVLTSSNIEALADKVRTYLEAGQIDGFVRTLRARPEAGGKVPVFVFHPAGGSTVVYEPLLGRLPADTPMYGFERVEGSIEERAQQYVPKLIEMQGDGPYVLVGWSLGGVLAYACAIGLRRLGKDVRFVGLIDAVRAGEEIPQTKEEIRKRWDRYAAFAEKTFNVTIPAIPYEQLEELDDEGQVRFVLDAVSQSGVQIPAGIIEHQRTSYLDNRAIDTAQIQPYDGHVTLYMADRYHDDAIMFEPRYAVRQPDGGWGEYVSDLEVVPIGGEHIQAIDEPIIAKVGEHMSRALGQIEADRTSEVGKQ
UniProt Q8IDJ8, 1-583: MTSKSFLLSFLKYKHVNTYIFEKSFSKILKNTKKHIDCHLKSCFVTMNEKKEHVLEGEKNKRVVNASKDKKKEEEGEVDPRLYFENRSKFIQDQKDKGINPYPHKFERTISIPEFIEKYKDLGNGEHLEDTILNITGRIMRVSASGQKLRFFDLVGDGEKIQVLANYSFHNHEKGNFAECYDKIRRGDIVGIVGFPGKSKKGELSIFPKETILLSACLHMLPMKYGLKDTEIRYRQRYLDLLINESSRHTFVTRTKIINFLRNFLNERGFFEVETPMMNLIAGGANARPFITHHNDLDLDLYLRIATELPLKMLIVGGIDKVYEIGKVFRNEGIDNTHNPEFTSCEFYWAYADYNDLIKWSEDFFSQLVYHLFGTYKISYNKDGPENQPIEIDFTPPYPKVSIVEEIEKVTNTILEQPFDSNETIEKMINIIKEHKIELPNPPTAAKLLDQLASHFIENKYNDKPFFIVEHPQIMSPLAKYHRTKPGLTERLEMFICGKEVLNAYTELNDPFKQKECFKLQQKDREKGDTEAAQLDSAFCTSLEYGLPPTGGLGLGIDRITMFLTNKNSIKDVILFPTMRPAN

From ChEMBL document CHEMBL3988442, “University of Dundee, Small-Polar-MMV Screening Library” (2021).

Each number is a percent effect as filed.
How 0% and 100% were set is not recorded. Most values in the screen are low, and negative values occur.
Compounds were drawn at random from those tested, without regard to their results.
Two or more numbers in one place are separate tests of the same structure; such repeats can differ widely.
A dash means the value is not listed here; it may have been measured.

A: 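Protease assay of ClpP1P2, read by the AMC dye that it sets free. Target: ClpP1P2, Mycobacterium tuberculosis (UniProt P9WPC5 and UniProt P9WPC3). Concentration: 50 µM. Higher reads as stronger inhibition, judged from the few compounds that gave an IC50. Most other retested compounds had strongly negative values. About 69,000 compounds were tested under these conditions; 0.015% (about 10) showed 50% or more at least once.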
B: 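Cell assay of Leishmania donovani living inside macrophages; the read-out is not stated. Concentration: 30 µM. The record gives no direction; compounds that gave an IC50 in retests scored well above the rest, so higher reads as stronger inhibition. Size under these conditions: about 69,000 compounds, about 1,000 of them at 50% or above in at least one test.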
C: 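Polyketide synthase Pks13, Mycobacterium tuberculosis (UniProt I6X8D2). Enzyme assay of the thioesterase domain of polyketide synthase 13; the read-out is not stated. Compounds at 30 µM. Higher reads as stronger inhibition (inferred from which compounds were picked for retests). About 67,000 compounds were tested under these conditions; 0.46% (about 300) showed 50% or more at least once.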
D: 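Enzyme assay of the cytosolic lysyl-tRNA synthetase in 384-well plates, read by luminescence. Target: Lysine-tRNA ligase, Plasmodium falciparum 3D7 (UniProt Q8IDJ8). Concentration: 30 µM. Higher reads as stronger inhibition, judged from the few compounds that gave an IC50. About 69,000 compounds were tested under these conditions; 0.071% (about 49) showed 50% or more at least once.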
E: 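Assay of Toxoplasma gondii numbers, read through their beta-galactosidase reporter with a colour substrate. Tested at 10 µM. Higher reads as fewer parasites (inferred from which compounds were picked for retests). Size under these conditions: about 67,000 compounds, about 260 of them at 50% or above in at least one test.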

structure	A	B	C	D	E
Cc1cnc(C(=O)N2CCC(C(=O)c3cc(F)ccc3F)CC2)cn1	-45.09%	-17.09%	-7.465%	0.08128%	4.196%
CC(=O)C1(c2ccccc2)CCN(C(=O)C2CNCCO2)CC1 (stereo not shown)	-3.602%	10.49%	-12.07%	3.45%	-1.112%
Cc1nc(COC[C@H]2CCC[C@@]23CN(C(C)C)CCO3)cs1.O=C(O)C(F)(F)F	-	15.07%	-	-	-7.706%
Cc1cc(C)c(CNC(=O)N2CCC(N3CCNC3=O)CC2)c(=O)[nH]1	0.3676%	16.42%	-0.2101%	2.748%	5.596%
COCC1CC2(CCN(CC3CC3)CC2)CN1c1ncccn1.O=C(O)C(F)(F)F.O=C(O)C(F)(F)F (stereo not shown)	-	24.58%	-	-	1.746%
O=C(O)C(F)(F)F.[H][C@@]12CN(c3ccccn3)C[C@@]1([H])N(CC(=O)N(C)C)C(=O)CO2	-	18.21%	-	-	3.825%
COc1ccccc1CN(Cc1cccnc1)CC1CCCO1.O=C(O)CC(O)(CC(=O)O)C(=O)O (stereo not shown)	-	-0.5609% & 13.58%	-	-	3.821%
O=C(c1cnccn1)N1CCC2(CCN(Cc3ccsc3)CC2)CC1	3.028%	13.14%	-26.15%	1.227%	6.831%
COc1ccc(CNCC2CN(C3CC3)CCO2)cc1F (stereo not shown)	-10.97%	-21.45%	-0.9529%	2.114%	5.66%
Cc1cnccc1N1CCCN(C(=O)CCc2n[nH]c(C)c2C)CC1	-17.69%	-3.249%	-62.94%	-1.233%	21.1%
COc1cc2c(nn1)CCN(Cc1noc(-c3ccccc3)n1)C2	-5.697%	2.434%	5.81%	1.091%	-9.584%
Cc1cc(C(=O)CN2CCN(c3cnccn3)CC2)c(C)n1C(C)C	12.19%	16.57%	6.917%	1.62%	9.704%
Cc1ccc(CNc2ccn(CCC(N)=O)n2)c(Br)c1	-4.47%	-10.12%	5.603%	-0.1848%	-4.992%
c1csc(CN2CCC3(CC2)COCCN3CC2CC2)n1	3.508%	-22.78% & -0.5056%	-31.18%	5.269%	-5.48%
C[S+]([O-])CCNC(=O)N1CCN(c2cc(F)ccc2F)CC1 (stereo not shown)	-10.71%	10.97%	-	3.176%	9.827%
Cc1cc(N2CCC(CC(N)=O)CC2)nc(-c2ccncc2)n1	5.038%	-1.46%	-13.06%	11.16%	-2.892%
Cc1ncsc1CCC(=O)N1CCn2cccc2C1c1cccnc1 (stereo not shown)	6.539%	18.51%	-14.03%	3.622%	-5.971%
COc1ccc(-c2noc(C3CC(C(C)C)=NO3)n2)cc1 (stereo not shown)	-3.323%	34.05%	-4.68%	-0.4798%	-11.16%
Cc1ccc(-c2ccnc(NC(C)c3n[nH]c(C)n3)n2)c(C)n1 (stereo not shown)	4.047%	-20.78%	-26.04%	0.2264%	-4.847%
NS(=O)(=O)CCN1CCOC(c2ccsc2)C1 (stereo not shown)	-2.921%	-3.994%	16.46%	1.259%	2.083%
CC(C)(C)c1coc([C@@H]2COCCN2Cc2c[nH]cn2)n1	-13.32%	0.7713%	-21.98%	2.427%	6.718%
COCCn1cc(CC(=O)Nc2nc3c(s2)CCC3)c2ccccc21	7.637%	25.24%	-1.986%	7.155%	-
COCCNc1nc(-n2nc(C)cc2C)nc2sc3c(c12)CCCC3	-11.81%	14.3%	-63.22%	-0.3777%	19.88%
Cn1cc(C(=O)N[C@@H]2CN(Cc3ccoc3)[C@@H]3CCCO[C@@H]32)cn1	-8.29%	-	3.018%	1.065%	-
O=C(O)C(F)(F)F.O=C(O)C(F)(F)F.[H][C@@]12CN(CCOC)C[C@]1([H])[C@H](OC)CCN2Cc1cnn(C)c1	-	3.235%	-	-	-9.204%
CS(=O)(=O)N1CCOCC2(CCN(C(=O)c3ccncc3)CC2)C1.O=C(O)C(F)(F)F	-	5.453%	-	-	12.35%
Cc1c(Br)cc2c(c1C)OCC(N(C)C)C2=O (stereo not shown)	2.977%	14.71%	-17.49%	-0.5449%	9.528%
O=C(Cc1ccc(-n2cnnn2)cc1)Nc1nncs1	-7.587%	20.67%	-23.85%	7.458%	-4.861%
Cc1noc(C(C)C)c1C(=O)NCCN1CCOCC1	-1.453%	10.72%	-20.14%	-0.7192%	-3.037%
CCCN1CCC(Cc2noc(-c3ncccc3C)n2)CC1	20.95%	17.75%	-7.574%	3.801%	-4.537%
CC(=O)N1CCCN(Cc2nnc(C(C)(C)C)o2)CC1	-17.7%	15.61%	-	1.477%	2.023%
O=C(O)C(F)(F)F.[H][C@]12C[C@@H](C(=O)NCCc3cccs3)CO[C@@]1([H])CCN(CC1CC1)C2	-	18.2%	-	-	-24.23%
[H][C@]12CCN[C@@]1([H])CN(C(=O)NCc1ccccc1)C2	-	-11.35%	-	-	-5.88%
O=C(O)C(F)(F)F.O=C(O)C(F)(F)F.O=C1NC2(CCN(Cc3ccsc3)CC2)CC1c1ccncc1 (stereo not shown)	-	30.04%	-	-	0.4162%
Cc1cc(N2CCCC(OC(=O)CCN3CCCC3=O)C2)nc(C)n1 (stereo not shown)	8.984%	25.89%	-6.446%	2.352%	-7.537%
NCc1ccc(Oc2ccc(F)c(F)c2)cc1C(F)(F)F	-7.422%	-	-20.32%	11.05%	-
CN(Cc1cccc(-n2cccn2)c1)Cc1cccs1	4.786%	20.17%	-	-1.54%	-5.485%
O=C(O)C(F)(F)F.[H][C@@]12COC[C@]1([H])[C@@H](OCC1CC1)CN2Cc1nccs1	-	13.2%	-	-	-6.738%
COCc1ccc(C(=O)N2CCN(CC3CC3)[C@@H]3CS(=O)(=O)C[C@@H]32)o1	-9.976%	-	-44.85%	1.776%	-
CN(Cc1cnc2ccccc2c1)C(=O)C(c1ccccc1F)N(C)C (stereo not shown)	-5.045%	16.71%	-	5.742%	-42.81%
O=C1NC2(Cc3ccccc31)CN(CC1CCNC1)C2 (stereo not shown)	-1.676%	21.85%	8.306%	1.401%	2.644%
[H][C@]12CN(CCOC)C(=O)[C@@]1([H])CN(c1ncccn1)C2	-	-5.896%	-	-	-3.108%
CC(C)c1nn(C)c(N2CCOCC2)c1CNCc1nncn1C	5.196%	35.21%	2.703%	12.34%	-18.85%
CCn1cc2c(n1)CN(S(=O)(=O)c1cccnc1)CC2COC (stereo not shown)	5.086%	-	-33.87%	4.07%	-
Cc1cccc(N2CCOCC3(C2)CN(c2ccoc2)C(=O)CO3)n1 (stereo not shown)	9.359%	-	15.8%	1.793%	-
CC(=O)c1c(C)cc(C)c(CS(=O)(=O)c2nccn2C)c1C	-5.283%	11.77%	-29.08%	4.802%	-1.418%
CN(C)C(=O)CN1CCC2(COCc3cnc(N4CCOCC4)nc32)C1.O=C(O)C(F)(F)F (stereo not shown)	-	36.71%	-	-	-16.06%
Cn1cc(CN2C[C@H]3CCC[C@@H](CNc4ncccn4)[C@H]3C2)cn1	-14.83%	-	-11.84%	4.028%	-
CNc1cc(N2CCCC2CNCc2cscn2)ncn1 (stereo not shown)	-43.98%	34.14%	-13.76%	1.348%	-5.248%
CC(C)(O)c1cn(C2CCN(c3ncccc3Cl)CC2)nn1	-8.006%	-0.4679%	-2.716%	-0.7532%	0.1335%

For reference, 4 entries once more:

Result for CC(C)(O)c1cn(C2CCN(c3ncccc3Cl)CC2)nn1 was A: -8.006%; B: -0.4679%; C: -2.716%; D: -0.7532%; E: 0.1335%.
Result for Cc1cc(N2CCCC(OC(=O)CCN3CCCC3=O)C2)nc(C)n1 (stereo not shown) was A: 8.984%; B: 25.89%; C: -6.446%; D: 2.352%; E: -7.537%.
Result for CC(=O)N1CCCN(Cc2nnc(C(C)(C)C)o2)CC1 was A: -17.7%; B: 15.61%; D: 1.477%; E: 2.023%.
Result for O=C(O)C(F)(F)F.O=C(O)C(F)(F)F.[H][C@@]12CN(CCOC)C[C@]1([H])[C@H](OC)CCN2Cc1cnn(C)c1 was B: 3.235%; E: -9.204%.